Measurements published in US4737500A, “1-substituted-4-(thiazolyl-2-)-piperazines, -piperidines and -tetrahydropyridines useful as anxiolytic, psychogeriatric, antidepressant and antischizophrenic agents” (priority 1985, dated 1988).

Target: T1, 5HT-1A-binding sites in the pig cortex (Sus scrofa, UniProt A0A4X1UTF5)
T1 construct: from tissue; host or cells: pig cortex
T1 sequence (A0A4X1UTF5 1-422): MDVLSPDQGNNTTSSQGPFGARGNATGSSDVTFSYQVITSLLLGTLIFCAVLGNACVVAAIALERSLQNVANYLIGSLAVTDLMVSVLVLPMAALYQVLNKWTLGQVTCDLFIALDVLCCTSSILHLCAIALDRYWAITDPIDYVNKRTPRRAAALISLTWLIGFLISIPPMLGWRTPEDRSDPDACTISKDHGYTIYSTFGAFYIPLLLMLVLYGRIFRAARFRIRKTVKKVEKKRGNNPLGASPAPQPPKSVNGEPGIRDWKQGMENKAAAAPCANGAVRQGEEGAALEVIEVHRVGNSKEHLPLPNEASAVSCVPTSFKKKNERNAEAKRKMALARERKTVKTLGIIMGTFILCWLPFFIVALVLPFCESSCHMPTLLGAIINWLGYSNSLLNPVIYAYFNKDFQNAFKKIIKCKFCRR
Assay: 5HT-1A-binding affinity test, binding of 3H-8-hydroxy-2-(di-n-propylamino)-tetraline (3H-PAT)

O=c1n(CCCN2CCN(c3cccc(Cl)c3)CC2)nc2ccccn12 [trazodone]
IC50: 0.01 to 0.4 µM
